PubChem BioAssay AID1259254 | NCATS – 2017
The deposit covers about 59,000 reagents; below is a part drawn at random. Of all reagents, about 1,550 (2.6%) were called active. 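G2 share is only a proxy for re-replication; each gene was hit by three separate siRNAs, and active genes were retested.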 The numbers tell different reagents against one gene apart. Not all columns of the deposit are shown. No sequences are given here. The record does not give: the amount of reagent.

Screen: 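Genome-wide screen for genes that prevent DNA re-replication in cancer cells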 (primary screen)
System: human HCT116 colorectal cancer cells
Reagents: single siRNA against human genes
Duration: 3 days
Detection: 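Imaged Hoechst DNA stain sorts each cell into a cycle phase by DNA amount; per plate, G2 fraction set to 0% for non-targeting and 100% for GMNN siRNA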
Direction: G2 robust z-score: higher = more G2 cells, more excess DNA replication
Rule for the call: 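An siRNA counts as active if its G2 robust z-score lies at least 5 MADs above the screen median; here such calls match roughly 38% of GMNN control or more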

G2 robust z-score | Call | Gene | reagent
0.884 | inactive | FAM180A | 1
1.11 | inactive | FAM180A | 2
-0.96 | inactive | FAM180A | 3
1.91 | inactive | SERF2 | 1
-0.379 | inactive | SERF2 | 2
2.95 | inactive | SERF2 | 3
0.763 | inactive | ADA | 1
-0.737 | inactive | ADA | 2
-1.17 | inactive | ADA | 3
-0.819 | inactive | DMRTB1 | 1
-0.105 | inactive | DMRTB1 | 2
6.47 | active | DMRTB1 | 3
0.451 | inactive | LINC00614 | 1
0.156 | inactive | LINC00614 | 2
-0.187 | inactive | LINC00614 | 3
-1.07 | inactive | GPS2 | 1
2.51 | inactive | GPS2 | 2
6.08 | active | GPS2 | 3
2.48 | inactive | B9D2 | 1
-0.557 | inactive | B9D2 | 2
2.11 | inactive | B9D2 | 3
-0.306 | inactive | NEK11 | 1
-0.229 | inactive | NEK11 | 2
-0.175 | inactive | NEK11 | 3
1.53 | inactive | PRCP | 1
0.298 | inactive | PRCP | 2
-0.599 | inactive | PRCP | 3
-0.654 | inactive | TRIM74 | 1
-0.159 | inactive | TRIM74 | 2
0.478 | inactive | TRIM74 | 3
-0.479 | inactive | MTRF1 | 1
-0.972 | inactive | MTRF1 | 2
-0.523 | inactive | MTRF1 | 3
1.2 | inactive | HSFY1 | 1
1.99 | inactive | HSFY1 | 2
0.142 | inactive | HSFY1 | 3
1.41 | inactive | KLHDC1 | 1
-0.369 | inactive | KLHDC1 | 2
-0.925 | inactive | KLHDC1 | 3
-0.0905 | inactive | UBA7 | 1
-0.0164 | inactive | UBA7 | 2
-1.14 | inactive | UBA7 | 3
2.65 | inactive | ICOSLG | 1
-0.324 | inactive | ICOSLG | 2
-0.638 | inactive | ICOSLG | 3
-0.087 | inactive | ARHGAP19 | 1
-0.878 | inactive | ARHGAP19 | 2
-0.515 | inactive | ARHGAP19 | 3
0.267 | inactive | ERI2 | 1
0.292 | inactive | ERI2 | 2
-0.203 | inactive | ERI2 | 3
0.532 | inactive | PHF5A | 1
1.12 | inactive | PHF5A | 2
2.86 | inactive | PHF5A | 3
-0.968 | inactive | CWC25 | 1
0.143 | inactive | CWC25 | 2
1.44 | inactive | CWC25 | 3
0.39 | inactive | KDM5B | 1
-1.16 | inactive | KDM5B | 2
2.03 | inactive | KDM5B | 3
-0.645 | inactive | PDPK1 | 1
-0.842 | inactive | PDPK1 | 2
-1.15 | inactive | PDPK1 | 3
-0.643 | inactive | IMPA1 | 1
-0.288 | inactive | IMPA1 | 2
-0.858 | inactive | IMPA1 | 3
-1.08 | inactive | ANKUB1 | 1
0.144 | inactive | ANKUB1 | 2
-0.854 | inactive | ANKUB1 | 3
-0.151 | inactive | FXR1 | 1
-1.36 | inactive | FXR1 | 2
-0.764 | inactive | FXR1 | 3
-0.521 | inactive | SNTG2 | 1
0.29 | inactive | SNTG2 | 2
-0.219 | inactive | SNTG2 | 3
0.545 | inactive | STXBP4 | 1
5.49 | active | STXBP4 | 2
-0.636 | inactive | STXBP4 | 3
-1.08 | inactive | DSG3 | 1
-0.389 | inactive | DSG3 | 2
-0.315 | inactive | DSG3 | 3
0.103 | inactive | PON2 | 1
-0.899 | inactive | PON2 | 2
0.389 | inactive | PON2 | 3
0.107 | inactive | DNAJC2 | 1
-0.18 | inactive | DNAJC2 | 2
-0.882 | inactive | DNAJC2 | 3

Reformatted: entries from further up.
{"Gene": "NEK11", "reagent": 1, "G2 robust z-score": -0.306, "Call": "inactive"}
{"Gene": "NEK11", "reagent": 2, "G2 robust z-score": -0.229, "Call": "inactive"}
{"Gene": "NEK11", "reagent": 3, "G2 robust z-score": -0.175, "Call": "inactive"}
{"Gene": "PRCP", "reagent": 1, "G2 robust z-score": 1.53, "Call": "inactive"}
{"Gene": "PRCP", "reagent": 2, "G2 robust z-score": 0.298, "Call": "inactive"}
{"Gene": "PRCP", "reagent": 3, "G2 robust z-score": -0.599, "Call": "inactive"}
